Data on one sequence can be found in PMC11096129.

Chains of the proteins cited; added tags and fusions are not shown. Lines headed by an entry give the natural chain unless they say otherwise; changes in a name come on top.
UniProt P43351: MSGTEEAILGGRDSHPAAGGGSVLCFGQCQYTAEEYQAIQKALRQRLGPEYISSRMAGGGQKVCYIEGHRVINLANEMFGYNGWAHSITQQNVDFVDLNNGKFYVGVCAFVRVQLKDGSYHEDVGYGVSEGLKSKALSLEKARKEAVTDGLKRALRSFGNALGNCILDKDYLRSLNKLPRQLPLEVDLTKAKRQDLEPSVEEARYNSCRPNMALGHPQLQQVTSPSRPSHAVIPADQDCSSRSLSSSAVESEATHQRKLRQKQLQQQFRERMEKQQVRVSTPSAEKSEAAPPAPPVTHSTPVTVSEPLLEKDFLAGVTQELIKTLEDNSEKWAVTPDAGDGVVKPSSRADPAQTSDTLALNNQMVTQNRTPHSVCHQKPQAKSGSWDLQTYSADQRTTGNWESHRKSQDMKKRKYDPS

The data set deals with RAD52-OR (open ring) (Homo sapiens) (UniProt P43351). The data set can be described thus: SEC. The settings on record: RAD52 preloaded on SSA2-Cy5 before annealing; recombinant protein; residues 1-418; label: 3' Cy5; single-stranded DNA.

The exact form of at least one protein or probe is not confirmed. At least one verdict was read from the data and is not stated in words by the source.

For the sequence “AACCTGCAGGTTGAGGAGCCCAAACCTCACTGGTAAATTCGCAGCGTTGACTAGACGGATTCGATA [SSA2-Cy5]”, the binding result is recorded as “binds”.
